# This is one part of the list. Many values rest on one well or one pass, so single values are uncertain.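 Imaging used 1,536-well plates; nuclei positive for cleaved PARP by antibody were divided by total DNA-stained nuclei to yield the apoptosis fraction. Doses for screening kept most cells viable, and cell lines differ markedly in resting and induced cleaved-PARP levels.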
# Tested on: WM451Lu
# Assay: cleaved PARP positive nuclei fraction relative to DMSO control; melanoma cells; higher = more apoptosis
# Conditions: library dose: low library concentration; 72 h
row,Compound,cleaved PARP positive nuclei fraction
1,"CC(C)(C)c1cnc(CSc2cnc(NC(=O)C3CCNCC3)s2)o1 + CCc1ccc(CCOc2ccc(CC3SC(=O)NC3=O)cc2)nc1 [pioglitazone] (first compound 0.01 µM, partner dose 2 µM)",63.9%
2,"C[C@]1(c2nc3c(C(N)=O)cccc3[nH]2)CCCN1 [Veliparib] + COc1ccc(COc2ccc(Cc3cnc(N)nc3N)cc2OC)cc1 [GW2580] (first compound 1.4 µM, partner dose 1 µM)",105%
3,"Cc1ccc(NC(=O)c2cccc(N(C)C)c2)cc1NC(=O)c1ccc(O)cc1 + NCC(=O)Nc1ccc(-n2nc(C(F)(F)F)cc2-c2ccc3c(ccc4ccccc43)c2)cc1 [OSU03012] (first compound 2 µM, partner dose 1 µM)",114%

# Source: the supplement of paper PMC4604168 (melanoma cell lines)
